Data as given in PubChem BioAssay AID1159584 (Peter MacCallum Cancer Centre, 2016).
Assay: 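Knock-downs that harm CDH1-null cells more than parental MCF10A cells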 (primary screen). Cell system: human MCF10A breast epithelial cells, parental and CDH1-null. Reagent: siRNA against human genes. Detection: 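ATP luminescence (CellTiter-Glo) viability per line relative to mean mock wells over all plates, and the ratio of CDH1-null to parental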. Reading the numbers: CDH1-null / parental viability ratio: higher = CDH1-null cells survive relatively better than parental.
Here is an unselected part of about 18,000 deposited reagents. Not all columns of the deposit are shown. Not stated in the record: the amount of reagent, the time to read-out.

The first 6 entries, to show the layout:
CDH1-null / parental viability ratio	target gene
0.96	LRRC31 (GeneID 79782)
1.12	DMRTC1 (GeneID 63947)
0.86	RXFP1 (GeneID 59350)
1.14	UGT8 (GeneID 7368)
0.94	C2orf78 (GeneID 388960)
1.19	HBP1 (GeneID 26959)

Main list, from the start:
CDH1-null / parental viability ratio	target gene
0.96	LRRC31 (GeneID 79782)
1.12	DMRTC1 (GeneID 63947)
0.86	RXFP1 (GeneID 59350)
1.14	UGT8 (GeneID 7368)
0.94	C2orf78 (GeneID 388960)
1.19	HBP1 (GeneID 26959)
0.61	OR4X1 (GeneID 390113)
1.03	GOLGA8G (GeneID 283768)
0.78	TAP1 (GeneID 6890)
0.9	CLEC4E (GeneID 26253)
1.09	CDCA3 (GeneID 83461)
1.03	DENND3 (GeneID 22898)
1.2	PNMA6A (GeneID 84968)
1.07	TERF2IP (GeneID 54386)
1.14	ALKAL1 (GeneID 389658)
1.07	CENPF (GeneID 1063)
0.89	GPR179 (GeneID 440435)
0.75	PSMC6 (GeneID 5706)
0.88	IPPK (GeneID 64768)
1.29	NOL11 (GeneID 25926)
1.32	MEP1B (GeneID 4225)
1.02	DDX25 (GeneID 29118)
1.28	GABRB3 (GeneID 2562)
0.81	OXSR1 (GeneID 9943)
0.95	CYP4F12 (GeneID 66002)
1.04	EID2 (GeneID 163126)
1.17	PRSS50 (GeneID 29122)
1.15	CCNB1IP1 (GeneID 57820)
1.05	GAS2 (GeneID 2620)
0.89	OTOS (GeneID 150677)
0.95	CIMAP3 (GeneID 128344)
0.98	ETV5 (GeneID 2119)
1.18	TSG101 (GeneID 7251)
1.38	CHRNB2 (GeneID 1141)
1.38	PPP1R3C (GeneID 5507)
0.94	DHODH (GeneID 1723)
1.22	CEMIP (GeneID 57214)
0.71	CALHM4 (GeneID 221301)
0.93	NLGN1 (GeneID 22871)
1.28	SIGIRR (GeneID 59307)
1.05	MYOM1 (GeneID 8736)
1.05	HPS5 (GeneID 11234)
0.8	KANK1 (GeneID 23189)
1.03	DEF8 (GeneID 54849)
1.03	LPCAT3 (GeneID 10162)
1.23	VSIG10 (GeneID 54621)
1.59	ADGRF5 (GeneID 221395)
1.07	NDRG3 (GeneID 57446)
1.28	TPM1 (GeneID 7168)
0.84	NIPAL3 (GeneID 57185)
0.9	CRY2 (GeneID 1408)
0.98	ARPIN (GeneID 348110)
0.92	DPF1 (GeneID 8193)
1.05	MXRA5 (GeneID 25878)
0.7	C2orf68 (GeneID 388969)
1.24	NICN1 (GeneID 84276)
0.95	FGF11 (GeneID 2256)
0.71	NDUFA1 (GeneID 4694)
1.02	ABCA6 (GeneID 23460)
0.89	PRR18 (GeneID 285800)
0.89	CDH9 (GeneID 1007)
1.13	KIAA0319L (GeneID 79932)
1.12	ASCC3 (GeneID 10973)
1.06	SLC2A7 (GeneID 155184)
1.31	NECAB1 (GeneID 64168)
0.87	ZSWIM2 (GeneID 151112)
0.99	ATXN7 (GeneID 6314)
1.25	NDUFA6 (GeneID 4700)
